Test results taken from publication PMC7733462.
These are yes or no findings as the source states them, for the method shown. In cells and extracts the contact can be indirect. Some results given as binding are weak or reduced against the parent protein; the word gives no strength.

Sequences of proteins named here, by UniProt entry; tags and fusion partners are left off. A change or cut given only in a name is not applied to a line headed by its entry.
UniProt Q60680: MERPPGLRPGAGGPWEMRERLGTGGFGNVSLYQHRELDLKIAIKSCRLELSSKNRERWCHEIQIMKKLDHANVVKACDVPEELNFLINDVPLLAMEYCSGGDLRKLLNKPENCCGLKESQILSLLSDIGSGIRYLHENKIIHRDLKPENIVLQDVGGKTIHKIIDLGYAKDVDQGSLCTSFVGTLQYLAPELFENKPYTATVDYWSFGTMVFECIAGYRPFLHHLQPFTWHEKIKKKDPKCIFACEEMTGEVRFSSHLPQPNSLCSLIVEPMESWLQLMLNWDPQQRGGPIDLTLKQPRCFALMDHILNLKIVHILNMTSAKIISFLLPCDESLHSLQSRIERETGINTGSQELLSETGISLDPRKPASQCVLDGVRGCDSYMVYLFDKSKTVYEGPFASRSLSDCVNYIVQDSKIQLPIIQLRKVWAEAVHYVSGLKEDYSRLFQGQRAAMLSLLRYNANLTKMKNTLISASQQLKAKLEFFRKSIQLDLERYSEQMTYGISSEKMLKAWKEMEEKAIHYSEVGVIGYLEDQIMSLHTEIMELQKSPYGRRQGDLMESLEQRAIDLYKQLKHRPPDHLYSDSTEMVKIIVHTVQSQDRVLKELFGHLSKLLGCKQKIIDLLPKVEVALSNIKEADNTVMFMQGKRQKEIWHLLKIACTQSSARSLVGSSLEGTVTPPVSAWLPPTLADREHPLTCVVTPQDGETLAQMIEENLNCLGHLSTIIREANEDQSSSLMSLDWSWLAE

Target: T1, TNFR1 (mouse, endogenous) (mouse (endogenous in MEFs)) (UniProt P25118)
T1 sequence: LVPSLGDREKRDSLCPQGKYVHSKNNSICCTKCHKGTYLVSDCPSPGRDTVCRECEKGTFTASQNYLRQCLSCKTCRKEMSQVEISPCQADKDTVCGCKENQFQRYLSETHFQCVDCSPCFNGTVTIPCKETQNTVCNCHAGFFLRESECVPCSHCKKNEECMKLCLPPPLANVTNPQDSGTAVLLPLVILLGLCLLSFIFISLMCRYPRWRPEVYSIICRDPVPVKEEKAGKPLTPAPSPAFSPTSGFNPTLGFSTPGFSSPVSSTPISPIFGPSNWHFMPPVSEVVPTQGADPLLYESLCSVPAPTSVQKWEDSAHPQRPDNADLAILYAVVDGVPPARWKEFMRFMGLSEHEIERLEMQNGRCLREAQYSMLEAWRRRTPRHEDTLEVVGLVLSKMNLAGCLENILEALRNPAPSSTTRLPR
Assay: co-IP; complex I precipitated with TNFR1 antibody from Ripk1+/+ and Ripk1K612R/K612R MEFs treated with mTNFα (100 ng/ml) for indicated times; western blot

Substance: IKKα/β (mouse, endogenous) (from UniProt Q60680 1-745; O88351 1-757) (complex)
- binding: binds
